The values below come from article PMC7025286.

By UniProt entry, the sequences of proteins in these tests, tags left out.
UniProt Q9CW03: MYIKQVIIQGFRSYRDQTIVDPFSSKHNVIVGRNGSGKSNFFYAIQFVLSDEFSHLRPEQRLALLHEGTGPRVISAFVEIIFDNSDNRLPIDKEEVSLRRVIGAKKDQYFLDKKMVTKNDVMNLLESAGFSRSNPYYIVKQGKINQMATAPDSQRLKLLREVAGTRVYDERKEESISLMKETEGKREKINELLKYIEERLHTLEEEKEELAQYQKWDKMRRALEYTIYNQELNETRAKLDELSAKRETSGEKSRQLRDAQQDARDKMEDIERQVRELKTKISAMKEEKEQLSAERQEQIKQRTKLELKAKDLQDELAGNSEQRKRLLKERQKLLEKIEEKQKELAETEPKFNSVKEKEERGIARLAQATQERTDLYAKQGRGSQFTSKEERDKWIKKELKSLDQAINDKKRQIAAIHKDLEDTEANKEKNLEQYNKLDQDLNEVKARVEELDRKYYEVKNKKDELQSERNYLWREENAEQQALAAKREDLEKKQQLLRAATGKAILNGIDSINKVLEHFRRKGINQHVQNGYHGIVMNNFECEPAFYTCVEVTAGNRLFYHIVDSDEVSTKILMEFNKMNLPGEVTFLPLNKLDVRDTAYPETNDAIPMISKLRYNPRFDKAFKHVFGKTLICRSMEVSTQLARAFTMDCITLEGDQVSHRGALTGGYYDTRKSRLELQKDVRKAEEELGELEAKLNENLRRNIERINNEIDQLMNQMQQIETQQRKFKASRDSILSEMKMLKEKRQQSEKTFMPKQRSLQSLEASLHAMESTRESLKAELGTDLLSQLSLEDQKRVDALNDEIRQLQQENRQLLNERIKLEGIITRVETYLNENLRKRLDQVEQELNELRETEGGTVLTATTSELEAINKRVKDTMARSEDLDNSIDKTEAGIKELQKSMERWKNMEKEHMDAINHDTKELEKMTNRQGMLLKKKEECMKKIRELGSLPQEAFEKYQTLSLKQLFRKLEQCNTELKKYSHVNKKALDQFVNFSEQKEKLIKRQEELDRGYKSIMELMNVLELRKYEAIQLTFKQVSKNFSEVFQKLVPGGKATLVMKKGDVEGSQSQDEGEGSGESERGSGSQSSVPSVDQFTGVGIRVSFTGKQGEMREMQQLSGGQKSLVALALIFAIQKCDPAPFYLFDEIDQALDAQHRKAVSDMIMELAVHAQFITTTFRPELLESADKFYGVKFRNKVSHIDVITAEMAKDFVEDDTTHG

The target in this assay is T1, SMC1β (mouse (endogenous in testis)) (UniProt Q920F6).
T1 sequence: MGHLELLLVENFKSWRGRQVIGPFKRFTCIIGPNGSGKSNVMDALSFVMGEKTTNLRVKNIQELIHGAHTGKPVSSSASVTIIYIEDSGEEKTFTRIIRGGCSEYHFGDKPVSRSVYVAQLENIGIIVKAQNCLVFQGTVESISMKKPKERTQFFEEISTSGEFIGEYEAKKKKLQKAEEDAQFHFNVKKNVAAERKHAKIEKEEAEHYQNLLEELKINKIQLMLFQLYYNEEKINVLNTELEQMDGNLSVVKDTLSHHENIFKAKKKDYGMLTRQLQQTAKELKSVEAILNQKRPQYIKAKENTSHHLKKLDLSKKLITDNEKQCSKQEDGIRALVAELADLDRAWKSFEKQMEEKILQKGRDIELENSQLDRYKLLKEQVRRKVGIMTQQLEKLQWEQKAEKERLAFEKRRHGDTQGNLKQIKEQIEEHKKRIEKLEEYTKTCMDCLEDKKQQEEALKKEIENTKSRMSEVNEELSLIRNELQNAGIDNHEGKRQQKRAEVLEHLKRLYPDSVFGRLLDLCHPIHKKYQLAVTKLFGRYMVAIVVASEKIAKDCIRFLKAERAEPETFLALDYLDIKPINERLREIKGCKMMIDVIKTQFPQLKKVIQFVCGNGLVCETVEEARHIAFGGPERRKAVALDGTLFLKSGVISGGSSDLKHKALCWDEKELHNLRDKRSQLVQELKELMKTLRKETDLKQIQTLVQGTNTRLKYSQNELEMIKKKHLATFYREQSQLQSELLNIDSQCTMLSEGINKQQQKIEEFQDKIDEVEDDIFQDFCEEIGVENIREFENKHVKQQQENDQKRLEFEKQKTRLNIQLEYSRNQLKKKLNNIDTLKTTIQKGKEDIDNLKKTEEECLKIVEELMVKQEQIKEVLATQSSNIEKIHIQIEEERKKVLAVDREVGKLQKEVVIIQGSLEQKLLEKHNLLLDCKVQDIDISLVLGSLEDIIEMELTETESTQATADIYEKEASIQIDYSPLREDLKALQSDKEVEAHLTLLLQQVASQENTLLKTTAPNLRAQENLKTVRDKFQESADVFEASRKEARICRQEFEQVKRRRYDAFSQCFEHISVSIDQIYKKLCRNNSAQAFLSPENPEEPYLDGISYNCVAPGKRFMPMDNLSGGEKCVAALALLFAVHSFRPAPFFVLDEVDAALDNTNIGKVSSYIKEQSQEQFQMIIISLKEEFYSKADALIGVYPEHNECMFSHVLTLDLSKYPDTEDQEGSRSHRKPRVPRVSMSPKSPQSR
The assay can be described thus: co-IP; 600 μg testis nuclear extract with anti-SMC1β IgG (mouse hybridoma supernatant) overnight at 4°C, Protein G Dynabeads; immunoblot with anti-acSMC3, anti-SMC3 and anti-SMC1β; extracts of wild-type mice (Fig 1A) and of control and Esco2 fl/Δ Vasa-cre mice (Fig S17D); control IP with anti-MYC IgG.

These are yes or no findings as the source states them, for the method shown. Binding seen in cells or lysates may run through a third protein. Some entries that bind do so weakly or less than the wild type.

“SMC3 acetylated on K105/K106 (from UniProt Q9CW03 1-1217)”: the binding result is “binds”.
